Record: PubChem BioAssay AID1508588 (Peter MacCallum Cancer Centre, 2020)
In all, the deposit lists about 18,000 reagents; this is a part drawn at random. Over the whole deposit, 790 (4.4%) were called active. 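Calls rest on a combination of fold-change classes in drug and vehicle arms, not all shown here.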

Screen: 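Knock-downs boosting vemurafenib effects on melanoma cell growth or lactate release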 (primary screen)
Cells: human WM266.4 melanoma cells (BRAF V600 mutant)
Knock-down reagent: siRNA pool against human genes, 40 nM
Timing: 96 h from transfection to read-out
Conditions: vemurafenib 300 nM (about IC25), added 48 h after transfection, for 48 h; comparison arm got DMSO vehicle only
Measured: 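Ratios to non-targeting siRNA for cell gain, counted as DAPI nuclei after minus before drug and averaged over two replicates, and for absorbance-read medium lactate per cell; both binned into fold-change classes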
Direction: cell gain with vemurafenib: higher = more cell gain than with non-targeting siRNA; lactate per cell with vemurafenib: higher = more lactate made per cell
Call rule: 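Enhancement is called by pairing each knock-down's vehicle-arm and drug-arm fold-change classes for viability or glycolysis; which class combinations qualify is not given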
Meaning of the calls: active = enhances vemurafenib effect; inactive = no enhancement seen

target gene | cell gain with vemurafenib | lactate per cell with vemurafenib | call
GRIPAP1 | 0.57 | 1.21 | inactive
EDF1 | 0.5 | 0.36 | inactive
FADS1 | 0.49 | 1.23 | inactive
CRISP3 | 0.54 | 0.9 | inactive
NDUFAF5 | 0.78 | 0.6 | inactive
CHAMP1 | 0.5 | 1.17 | inactive
F12 | 0.61 | 1.27 | inactive
TMEM161B | 0.97 | 0.41 | inactive
MIS18BP1 | 0.33 | 1.29 | inactive
KRT71 | 0.06 | 0.44 | inactive
GGT7 | 0.78 | 0.75 | inactive
PSMB8 | 0.53 | 0.85 | inactive
GLB1 | 0.59 | 0.9 | inactive
SMIM19 | 0.52 | 1 | inactive
RFC2 | 0.34 | 1.14 | inactive
PRKCA | 0.28 | 0.76 | inactive
HASPIN | 0.31 | 1.13 | inactive
HOXA1 | 0.52 | 1.16 | inactive
SPR | 0.31 | 1.72 | inactive
CDRT15 | 0.83 | 0.47 | inactive
MMRN1 | 0.53 | 0.66 | inactive
TNPO3 | 0.04 | -0.02 | active
MNX1 | 0.32 | 1.54 | inactive
NEDD4L | 0.62 | 0.57 | inactive
CACTIN | 0.58 | 0.87 | inactive
AXIN2 | 0.8 | 0.22 | inactive
SLC25A26 | 0.58 | 1.02 | inactive
PRB1 | 0.8 | 0.78 | inactive
GABRQ | 0.26 | 0.85 | inactive
TMIE | 0.56 | 0.55 | inactive
MYLK4 | 0.63 | 1.25 | inactive
THEMIS | 0.37 | 0.8 | inactive
AP4S1 | 0.13 | 1.41 | inactive
MTCH1 | 0.78 | 0.65 | inactive
KRT26 | 0.06 | 2.63 | inactive
MIX23 | 0.44 | 1.4 | inactive
ZSCAN21 | 0.31 | 1.4 | inactive
SPIC | 0.92 | 0.86 | inactive
CAVIN1 | 1.01 | 0.81 | inactive
FBN2 | 0.17 | 1.7 | inactive
RBBP8NL | 0.42 | 1.78 | inactive
TMEM158 | 1.11 | 0.88 | inactive
FBXO6 | 0.47 | 1.77 | inactive
YJEFN3 | 0.91 | 1.11 | inactive
ADAMTS16 | 0.97 | 0.74 | inactive
BLVRA | 0.54 | 1.13 | inactive
SFMBT1 | 1.5 | 0.56 | inactive
GABRE | 0.38 | 0.54 | inactive
CALM3 | 0.43 | 1.46 | inactive
PCCA | 0.64 | 1.16 | inactive
MYOM2 | 0.83 | 0.63 | inactive
RHOT1 | 0.82 | 0.94 | inactive
PLD6 | 0.44 | 0.06 | inactive
KAT6A | 0.65 | 0.86 | inactive
SPDEF | 0.92 | 0.46 | active
ROBO1 | 0.3 | 1.16 | inactive
CNGA4 | 0.43 | 0.97 | inactive
